This assay has as its target T1, S-Adenosylmethionine lyase (SAMase) of bacteriophage T3, C-terminal His-tagged (bacteriophage T3) (UniProt P07693).
T1 sequence: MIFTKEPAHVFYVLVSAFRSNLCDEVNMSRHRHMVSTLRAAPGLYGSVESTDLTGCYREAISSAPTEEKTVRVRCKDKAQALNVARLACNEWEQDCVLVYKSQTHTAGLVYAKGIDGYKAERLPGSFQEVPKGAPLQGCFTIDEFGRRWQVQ
The experiment in a line: affinity purification with mass spectrometry; His-tagged SAMase expressed in E. coli, Ni-NTA then SEC (Superdex 200, 25 mM Tris pH 8.0, 150 mM KCl, 1 mM DTT); co-purifying ∼43 kDa band cut from SDS-PAGE and identified by LC-MS/MS.

The results in this text go back to paper PMC8406200, “SAMase of Bacteriophage T3 Inactivates Escherichia coli’s Methionine S-Adenosyltransferase by Forming Heteropolymers” (mBio, 2021).

Results are given in words; binding and its absence hold for the method and conditions named. In cells and extracts the contact can be indirect. These calls come from enrichment with a bait or labelling near it, and not all partners need be listed. Where a sequence is shown, tags or fusion partners need not be part of it.

B1: E. coli methionine S-adenosyltransferase (MAT), recombinant, C-terminal His6 (enzyme, E. coli MG1655, UniProt P0A817 1-384, looked up)
chain: MAKHLFTSESVSEGHPDKIADQISDAVLDAILEQDPKARVACETYVKTGMVLVGGEITTSAWVDIEEITRNTVREIGYVHSDMGFDANSCAVLSAIGKQSPDINQGVDRADPLEQGAGDQGLMFGYATNETDVLMPAPITYAHRLVQRQAEVRKNGTLPWLRPDAKSQVTFQYDDGKIVGIDAVVLSTQHSEEIDQKSLQEAVMEEIIKPILPAEWLTSATKFFINPTGRFVIGGPMGDCGLTGRKIIVDTYGGMARHGGGAFSGKDPSKVDRSAAYAARYVAKNIVAAGLADRCEIQVSYAIGVAEPTSIMVETFGTEKVPSEQLTLLVREFFDLRPYGLIQMLDLLHPIYKETAAYGHFGREHFPWEKTDKAQLLRDAAGLK
notes: Homotetramer (dimer of dimers); also called EcMAT; E. coli MAT; source: E. coli BL21(DE3) (pET24a), purified (Ni-NTA, SEC)
Turning to B1, the binding result is on record as “binds”.
